From doi:10.1101/2021.08.16.456582
Results are given in words; binding and its absence hold for the method and conditions named. In cells and extracts the contact can be indirect. Some results given as binding are weak or reduced against the parent protein; the word gives no strength.

T1: 3xHA-RILPL (RILP-like, the fly RILP) (Drosophila) (UniProt O76878)
T1 sequence: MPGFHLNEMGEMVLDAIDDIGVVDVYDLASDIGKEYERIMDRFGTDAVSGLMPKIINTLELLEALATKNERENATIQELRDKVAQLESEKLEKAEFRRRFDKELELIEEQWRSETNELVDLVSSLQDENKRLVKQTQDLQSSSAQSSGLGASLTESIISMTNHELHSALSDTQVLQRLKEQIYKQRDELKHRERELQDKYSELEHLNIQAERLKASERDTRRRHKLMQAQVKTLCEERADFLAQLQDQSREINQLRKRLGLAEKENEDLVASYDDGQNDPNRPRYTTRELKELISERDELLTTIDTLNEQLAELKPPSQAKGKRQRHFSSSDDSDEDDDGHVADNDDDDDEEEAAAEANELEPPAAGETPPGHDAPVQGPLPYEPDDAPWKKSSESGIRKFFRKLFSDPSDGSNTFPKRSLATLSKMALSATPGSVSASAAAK

T2: 3xHA-RILPL (RILP-like, the fly RILP) (Drosophila), O76878
T2 chain: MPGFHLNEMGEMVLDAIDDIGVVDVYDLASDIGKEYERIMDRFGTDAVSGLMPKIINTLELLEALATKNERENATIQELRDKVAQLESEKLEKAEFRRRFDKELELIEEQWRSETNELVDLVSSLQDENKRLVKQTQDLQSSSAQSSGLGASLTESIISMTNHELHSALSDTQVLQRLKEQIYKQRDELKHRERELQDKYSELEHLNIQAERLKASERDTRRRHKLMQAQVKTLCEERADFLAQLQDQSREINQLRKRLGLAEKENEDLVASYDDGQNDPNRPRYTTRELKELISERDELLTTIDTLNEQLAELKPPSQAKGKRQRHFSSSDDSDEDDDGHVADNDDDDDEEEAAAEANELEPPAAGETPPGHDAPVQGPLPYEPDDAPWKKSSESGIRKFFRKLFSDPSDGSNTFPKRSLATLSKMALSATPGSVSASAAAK


Legend:
[1] = target: T1, 3xHA-RILPL (RILP-like, the fly RILP) (Drosophila); assay: co-IP
[2] = target: T2, 3xHA-RILPL (RILP-like, the fly RILP) …; assay: co-IP; conditions: remark: other sources report otherwise

| Molecule | binding [1] | binding [2] |
| --- | --- | --- |
| 3xFlag-Rab7^Q67L (from UniProt O76742 1-207) | binds | – |
| Rab7 (endogenous, adult fly brain), O76742 1-207 (protein) MSGRKKSLLKVIILGDSSVGKTSLMNQYVNKRFSNQYKATIGADFCTKEVVVNDRVVTMQIWDTAGQERFQSLGVAFYRGADCCVLVYDVTAPNSFKNLDSWRDEFLIQASPRDPDHFPFVVLGNKVDLDNRQVSTRRAQQWCQSKNDIPYYETSAKEGINVEMAFQVIAKNALELEAEAEVINDFPDQITLGSQNNRPGNPDNCQC | – | binds |
